From patent US8846683B2, “Pyrimidyl cyclopentanes as Akt protein kinase inhibitors” (Array BioPharma Inc., priority 2007, dated 2014)
Some results were stated once for a whole list of compounds, not compound by compound.

Protein sequences, listed by entry. Tags and fused reporters are not part of them. Lines headed by an entry give the natural chain unless they say otherwise; changes in a name come on top.
UniProt P31749: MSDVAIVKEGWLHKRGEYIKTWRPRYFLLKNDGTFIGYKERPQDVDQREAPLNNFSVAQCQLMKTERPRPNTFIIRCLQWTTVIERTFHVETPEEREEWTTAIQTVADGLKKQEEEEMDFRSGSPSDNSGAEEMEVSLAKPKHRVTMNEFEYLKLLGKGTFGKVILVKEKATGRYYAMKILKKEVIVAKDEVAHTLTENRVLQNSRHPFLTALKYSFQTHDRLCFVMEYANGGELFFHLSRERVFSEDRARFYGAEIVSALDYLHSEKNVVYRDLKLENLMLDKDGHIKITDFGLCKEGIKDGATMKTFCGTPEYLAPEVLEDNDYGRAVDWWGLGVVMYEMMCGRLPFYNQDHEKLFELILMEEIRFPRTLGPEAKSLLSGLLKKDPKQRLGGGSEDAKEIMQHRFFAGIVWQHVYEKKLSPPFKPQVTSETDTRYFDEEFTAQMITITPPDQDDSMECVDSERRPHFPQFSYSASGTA

molecular target: full-length human recombinant active AKT-1 (Homo sapiens, UniProt P31749); assay: AKT-1 Kinase Assay (IMAP fluorescence polarization); assay type: biochemical; details: phosphorylation of fluorescently-labeled peptide (Crosstide), 4 nM AKT-1, 60 minute at ambient temperature

IC50, < 1000 nM:
CCN(CC)CCN(Cc1ccc(Cl)cc1)C(=O)N1CCN(c2ncnc3c2[C@H](C)CC3)CC1 [Example 13, (R)-N-(4-chlorobenzyl)-N-(2-(diethylamino)ethyl)-4-(5-methyl-6,7-dihydro-5H-cyclopenta[d]pyrimidin-4-yl)piperazine-1-carboxamide]
C[C@@H]1CCc2ncnc(N3CCN(C(=O)N(CCN)Cc4ccc(OC(F)(F)F)cc4)CC3)c21 [Example 7, (R)-N-(2-aminoethyl)-4-(5-methyl-6,7-dihydro-5H-cyclopenta[d]pyrimidin-4-yl)-N-(4-(trifluoromethoxy)benzyl)piperazine-1-carboxamide]
C[C@@H]1C[C@@H](O)c2ncnc(N3CCN(C(=O)N(Cc4ccc(Cl)c(F)c4)[C@H]4CCNC4)CC3)c21 [Example 16, N-(4-chloro-3-fluorobenzyl)-4-((5R,7R)-7-hydroxy-5-methyl-6,7-dihydro-5H-cyclopenta[d]pyrimidin-4-yl)-N-((S)-pyrrolidin-3-yl)piperazine-1-carboxamide]
C[C@@H]1CCc2ncnc(N3CCN(C(=O)N(CCN)Cc4ccc(Br)cc4)CC3)c21 [Example 9, (R)-N-(2-aminoethyl)-N-(4-bromobenzyl)-4-(5-methyl-6,7-dihydro-5H-cyclopenta[d]pyrimidin-4-yl)piperazine-1-carboxamide]
C[C@@H]1CCc2ncnc(N3CCN(C(=O)N(CCN)Cc4ccc(Br)s4)CC3)c21 [Example 14, (R)-N-(2-aminoethyl)-N-((5-bromothiophen-2-yl)methyl)-4-(5-methyl-6,7-dihydro-5H-cyclopenta[d]pyrimidin-4-yl)piperazine-1-carboxamide]
C[C@@H]1C[C@@H](O)c2ncnc(N3CCN(C(=O)N(CCN)Cc4ccc(Cl)c(F)c4)CC3)c21 [Example 19, N-(2-aminoethyl)-N-(4-chloro-3-fluorobenzyl)-4-((5R,7R)-7-hydroxy-5-methyl-6,7-dihydro-5H-cyclopenta[d]pyrimidin-4-yl)piperazine-1-carboxamide]
C[C@@H]1CCc2ncnc(N3CCN(C(=O)N(CCN)Cc4ccc(Cl)cc4)CC3)c21 [Example 1, (R)—N-(2-aminoethyl)-N-(4-chlorobenzyl)-4-(5-methyl-6,7-dihydro-5H-cyclopenta[d]pyrimidin-4-yl)piperazine-1-carboxamide]
C[C@@H]1CCc2ncnc(N3CCN(C(=O)N(CCN)Cc4ccc(Cl)cc4Cl)CC3)c21 [Example 5, (R)-N-(2-aminoethyl)-N-(2,4-dichlorobenzyl)-4-(5-methyl-6,7-dihydro-5H-cyclopenta[d]pyrimidin-4-yl)piperazine-1-carboxamide]
C[C@@H]1CCc2ncnc(N3CCN(C(=O)N(CCN)Cc4ccc(F)cc4)CC3)c21 [Example 8, (R)-N-(2-aminoethyl)-N-(4-fluorobenzyl)-4-(5-methyl-6,7-dihydro-5H-cyclopenta[d]pyrimidin-4-yl)piperazine-1-carboxamide]
C[C@@H]1CCc2ncnc(N3CCN(C(=O)N(CCN)Cc4ccc(Cl)c(F)c4)CC3)c21 [Example 11, (R)-N-(2-aminoethyl)-N-(4-chloro-3-fluorobenzyl)-4-(5-methyl-6,7-dihydro-5H-cyclopenta[d]pyrimidin-4-yl)piperazine-1-carboxamide]
C[C@@H]1CCc2ncnc(N3CCN(C(=O)N(CCN)Cc4ccc(SC(F)(F)F)cc4)CC3)c21 [Example 4, (R)-N-(2-aminoethyl)-4-(5-methyl-6,7-dihydro-5H-cyclopenta[d]pyrimidin-4-yl)-N-(4-(trifluoromethylthio)benzyl)piperazine-1-carboxamide]
C[C@@H]1C[C@@H](O)c2ncnc(N3CCN(C(=O)N(Cc4ccc(Cl)c(F)c4)C4CCNCC4)CC3)c21 [Example 17, N-(4-chloro-3-fluorobenzyl)-4-((5R,7R)-7-hydroxy-5-methyl-6,7-dihydro-5H-cyclopenta[d]pyrimidin-4-yl)-N-(piperidin-4-yl)piperazine-1-carboxamide]
C[C@@H]1C[C@@H](O)c2ncnc(N3CCN(C(=O)N(Cc4ccc(Cl)c(F)c4)C4CNC4)CC3)c21 [Example 18, N-(azetidin-3-yl)-N-(4-chloro-3-fluorobenzyl)-4-((5R,7R)-7-hydroxy-5-methyl-6,7-dihydro-5H-cyclopenta[d]pyrimidin-4-yl)piperazine-1-carboxamide]
CCN(CC)CCN(C(=O)N1CCN(c2ncnc3c2[C@H](C)CC3)CC1)c1ccc(Cl)cc1 [Example 2, (R)—N-(4-chlorophenyl)-N-(2-(diethylamino)ethyl)-4-(5-methyl-6,7-dihydro-5H-cyclopenta[d]pyrimidin-4-yl)piperazine-1-carboxamide]
C[C@@H]1CCc2ncnc(N3CCN(C(=O)N(CCN)Cc4ccc(Cl)c(Cl)c4)CC3)c21 [Example 12, (R)-N-(2-aminoethyl)-N-(3,4-dichlorobenzyl)-4-(5-methyl-6,7-dihydro-5H-cyclopenta[d]pyrimidin-4-yl)piperazine-1-carboxamide]
CCN(CC)CCN(Cc1ccc(Cl)cc1)C(=O)N1CCN(c2ncnc3c2[C@H](C)CC3O)CC1 (stereo partly drawn) [Example 3, N-(4-chlorobenzyl)-N-(2-(diethylamino)ethyl)-4-((5R)-7-hydroxy-5-methyl-6,7-dihydro-5H-cyclopenta[d]pyrimidin-4-yl)piperazine-1-carboxamide]
C[C@@H]1CCc2ncnc(N3CCN(C(=O)N(CCN)Cc4ccc(I)cc4)CC3)c21 [Example 6, (R)-N-(2-aminoethyl)-N-(4-iodobenzyl)-4-(5-methyl-6,7-dihydro-5H-cyclopenta[d]pyrimidin-4-yl)piperazine-1-carboxamide]
C[C@@H]1CCc2ncnc(N3CCN(C(=O)N(CCN)Cc4ccc(C(F)(F)F)cc4)CC3)c21 [Example 10, (R)-N-(2-aminoethyl)-4-(5-methyl-6,7-dihydro-5H-cyclopenta[d]pyrimidin-4-yl)-N-(4-(trifluoromethyl)benzyl)piperazine-1-carboxamide]
CC(C)NCCN(Cc1ccc(Cl)c(F)c1)C(=O)N1CCN(c2ncnc3c2[C@H](C)C[C@H]3O)CC1 [Example 20, N-(4-chloro-3-fluorobenzyl)-4-((5R,7R)-7-hydroxy-5-methyl-6,7-dihydro-5H-cyclopenta[d]pyrimidin-4-yl)-N-(2-(isopropylamino)ethyl)piperazine-1-carboxamide]
C[C@@H]1C[C@@H](O)c2ncnc(N3CCN(C(=O)N(Cc4ccc(Cl)c(F)c4)[C@@H]4CCNC4)CC3)c21 [Example 15, N-(4-chloro-3-fluorobenzyl)-4-((5R,7R)-7-hydroxy-5-methyl-6,7-dihydro-5H-cyclopenta[d]pyrimidin-4-yl)-N-((R)-pyrrolidin-3-yl)piperazine-1-carboxamide]
